A short description of the series: general procedure: Fmoc solid-phase peptide synthesis; H-Rink Amide ChemMatrix, 0.5 mmol/g; HBTU/DIEA. Particulars: oxidative folding step, analytical HPLC.

HELM strings list residues between dots; [ac] is acetyl, [am] amide, other brackets name non-standard units.

With “PEPTIDE1{S.Y.V.G.D.C.G.S.N.G.G.S.C.V.S.S.Y.C.P.Y.G.N.R.L.N.Y.F.C.P.L.G.R.T.C.C.R.R.S.Y.[am]}$PEPTIDE1,PEPTIDE1,6:R3-34:R3|PEPTIDE1,PEPTIDE1,13:R3-28:R3|PEPTIDE1,PEPTIDE1,18:R3-35:R3$$$V2.0”, the “final HPLC purity” value is listed as 98.7%.

On to YC3PYGNRLNYFC4PLGRTC5C6RRSY-amide, for which, under “several disulfide bridges”, the “final HPLC purity” value amounted to 99.8%.

(Values after publication PMC10301333 (Pharmaceutics, 2023).)
